A short description of this test: Displacement of radiolabeled NalBzOH from kappa3 opioid receptor in Hartley guinea pig brain.

As for `CN1CC[C@]23c4c5ccc(O)c4O[C@H]2[C@@H](O)C=C[C@H]3[C@H]1C5`, the affinity, expressed as Ki, was 14 nM.

Broadly, the Ki is a measure of affinity in units of concentration, obtained from inhibition or displacement. Read a high Ki as a looser hold on the target.

The record behind these values is BindingDB's records for doi:10.1016/j.bmcl.2006.05.060 (University of Kentucky, 2006).
